One molecule from patent US20110035817A1 can be followed below.

By UniProt entry, the sequences of proteins in these tests, tags left out.
UniProt Q99558: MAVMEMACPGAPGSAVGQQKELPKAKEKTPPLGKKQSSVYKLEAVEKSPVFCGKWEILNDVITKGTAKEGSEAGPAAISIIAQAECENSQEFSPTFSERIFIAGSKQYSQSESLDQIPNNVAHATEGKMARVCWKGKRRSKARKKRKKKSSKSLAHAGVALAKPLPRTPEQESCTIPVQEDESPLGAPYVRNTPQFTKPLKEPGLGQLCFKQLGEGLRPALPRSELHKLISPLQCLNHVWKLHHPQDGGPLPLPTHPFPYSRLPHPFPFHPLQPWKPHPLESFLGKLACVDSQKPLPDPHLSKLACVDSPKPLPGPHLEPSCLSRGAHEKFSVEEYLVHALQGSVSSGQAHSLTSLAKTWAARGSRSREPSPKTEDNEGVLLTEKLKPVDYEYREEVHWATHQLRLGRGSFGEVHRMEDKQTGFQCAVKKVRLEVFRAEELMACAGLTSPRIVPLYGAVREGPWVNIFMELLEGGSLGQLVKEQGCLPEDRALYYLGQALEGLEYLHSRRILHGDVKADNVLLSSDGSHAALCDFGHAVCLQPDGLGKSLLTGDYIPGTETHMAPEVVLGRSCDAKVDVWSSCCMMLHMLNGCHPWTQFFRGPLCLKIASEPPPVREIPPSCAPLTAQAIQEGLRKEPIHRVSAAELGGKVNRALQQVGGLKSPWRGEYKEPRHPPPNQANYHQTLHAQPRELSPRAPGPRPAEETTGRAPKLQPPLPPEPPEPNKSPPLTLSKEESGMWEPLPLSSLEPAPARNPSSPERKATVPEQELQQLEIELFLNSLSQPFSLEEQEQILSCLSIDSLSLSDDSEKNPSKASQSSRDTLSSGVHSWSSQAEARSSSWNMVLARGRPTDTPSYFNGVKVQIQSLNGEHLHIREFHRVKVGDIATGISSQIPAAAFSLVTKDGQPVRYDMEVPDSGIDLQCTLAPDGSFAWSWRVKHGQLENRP
UniProt Q13490: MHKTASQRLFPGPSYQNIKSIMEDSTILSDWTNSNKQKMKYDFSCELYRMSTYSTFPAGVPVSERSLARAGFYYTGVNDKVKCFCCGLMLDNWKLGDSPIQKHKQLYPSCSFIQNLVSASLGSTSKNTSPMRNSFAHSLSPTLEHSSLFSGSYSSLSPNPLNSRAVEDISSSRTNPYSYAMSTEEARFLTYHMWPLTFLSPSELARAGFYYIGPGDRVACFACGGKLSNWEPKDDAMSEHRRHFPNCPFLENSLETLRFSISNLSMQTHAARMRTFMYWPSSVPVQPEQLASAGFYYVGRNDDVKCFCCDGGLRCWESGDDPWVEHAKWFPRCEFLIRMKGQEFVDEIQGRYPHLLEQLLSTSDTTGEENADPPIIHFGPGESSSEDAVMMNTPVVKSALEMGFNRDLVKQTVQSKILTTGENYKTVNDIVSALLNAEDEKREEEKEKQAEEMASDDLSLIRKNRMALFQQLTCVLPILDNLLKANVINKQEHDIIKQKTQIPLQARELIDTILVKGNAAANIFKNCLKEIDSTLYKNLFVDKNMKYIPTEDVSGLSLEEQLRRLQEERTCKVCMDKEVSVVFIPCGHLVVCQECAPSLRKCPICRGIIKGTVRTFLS

These are yes or no findings as the source states them, for the method shown. Binding seen in cells or lysates may run through a third protein. Some results given as binding are weak or reduced against the parent protein; the word gives no strength. Tags and fused reporters may be left off the sequences shown.

Assay [1] concerns the target myc-NIK (wild-type NIK fused N-terminally to a six myc tag) (UniProt Q99558). The experiment in a line: co-immunoprecipitation from HEK-293T lysate: NIK immunoprecipitated with anti-NIK antibody, SIVA detected by Western blot (FIG. 5).
Assay [2] deals with endogenous cellular inhibitor of apoptosis protein 1 (cIAP1) (UniProt Q13490). The assay is described as follows: co-immunoprecipitation from HEK-293T lysate: endogenous cIAP1 immunoprecipitated with anti-cIAP1, SIVA detected by Western blot. (A western blot detects proteins with antibodies after separation by electrophoresis.)

B1: FLAG-SIVA2 (protein, human, UniProt O15304-2 1-110, looked up, not shown: small tags and cut ends)
chain: MPKRSCPFADVAPLQLKVRVSQRELSRGVCAERYSQEVFDPSGVASIACSSCVRAVDGKAVCGQCERALCGQCVRTCWGCGSVACTLCGLVDCSDMYEKVLCTSCAMFET
In the case of B1, the binding entry in assay [1] and in assay [2] was “binds” in each case.
